These results are taken from PMC3093395.

Sequences of proteins named here, by UniProt entry; tags and fusion partners are left off. A change or cut given only in a name is not applied to a line headed by its entry.
UniProt P48432: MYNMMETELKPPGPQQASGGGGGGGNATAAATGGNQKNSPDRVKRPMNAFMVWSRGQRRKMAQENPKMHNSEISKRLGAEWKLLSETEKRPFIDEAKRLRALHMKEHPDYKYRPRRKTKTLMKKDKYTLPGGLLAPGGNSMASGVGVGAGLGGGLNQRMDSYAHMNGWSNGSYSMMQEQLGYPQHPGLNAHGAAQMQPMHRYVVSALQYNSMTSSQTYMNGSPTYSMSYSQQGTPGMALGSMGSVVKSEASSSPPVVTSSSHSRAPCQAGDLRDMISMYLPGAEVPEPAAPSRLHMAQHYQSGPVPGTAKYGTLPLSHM
UniProt Q07104: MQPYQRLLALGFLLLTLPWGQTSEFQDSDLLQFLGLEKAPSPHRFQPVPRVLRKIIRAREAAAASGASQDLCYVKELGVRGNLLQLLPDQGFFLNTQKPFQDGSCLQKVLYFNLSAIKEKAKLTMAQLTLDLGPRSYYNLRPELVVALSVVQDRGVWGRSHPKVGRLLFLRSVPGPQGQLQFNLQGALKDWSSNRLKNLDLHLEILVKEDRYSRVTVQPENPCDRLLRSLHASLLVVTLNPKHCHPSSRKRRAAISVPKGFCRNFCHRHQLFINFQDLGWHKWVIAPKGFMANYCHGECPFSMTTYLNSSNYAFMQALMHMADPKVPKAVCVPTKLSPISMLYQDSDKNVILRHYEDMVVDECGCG
UniProt Q8BX22: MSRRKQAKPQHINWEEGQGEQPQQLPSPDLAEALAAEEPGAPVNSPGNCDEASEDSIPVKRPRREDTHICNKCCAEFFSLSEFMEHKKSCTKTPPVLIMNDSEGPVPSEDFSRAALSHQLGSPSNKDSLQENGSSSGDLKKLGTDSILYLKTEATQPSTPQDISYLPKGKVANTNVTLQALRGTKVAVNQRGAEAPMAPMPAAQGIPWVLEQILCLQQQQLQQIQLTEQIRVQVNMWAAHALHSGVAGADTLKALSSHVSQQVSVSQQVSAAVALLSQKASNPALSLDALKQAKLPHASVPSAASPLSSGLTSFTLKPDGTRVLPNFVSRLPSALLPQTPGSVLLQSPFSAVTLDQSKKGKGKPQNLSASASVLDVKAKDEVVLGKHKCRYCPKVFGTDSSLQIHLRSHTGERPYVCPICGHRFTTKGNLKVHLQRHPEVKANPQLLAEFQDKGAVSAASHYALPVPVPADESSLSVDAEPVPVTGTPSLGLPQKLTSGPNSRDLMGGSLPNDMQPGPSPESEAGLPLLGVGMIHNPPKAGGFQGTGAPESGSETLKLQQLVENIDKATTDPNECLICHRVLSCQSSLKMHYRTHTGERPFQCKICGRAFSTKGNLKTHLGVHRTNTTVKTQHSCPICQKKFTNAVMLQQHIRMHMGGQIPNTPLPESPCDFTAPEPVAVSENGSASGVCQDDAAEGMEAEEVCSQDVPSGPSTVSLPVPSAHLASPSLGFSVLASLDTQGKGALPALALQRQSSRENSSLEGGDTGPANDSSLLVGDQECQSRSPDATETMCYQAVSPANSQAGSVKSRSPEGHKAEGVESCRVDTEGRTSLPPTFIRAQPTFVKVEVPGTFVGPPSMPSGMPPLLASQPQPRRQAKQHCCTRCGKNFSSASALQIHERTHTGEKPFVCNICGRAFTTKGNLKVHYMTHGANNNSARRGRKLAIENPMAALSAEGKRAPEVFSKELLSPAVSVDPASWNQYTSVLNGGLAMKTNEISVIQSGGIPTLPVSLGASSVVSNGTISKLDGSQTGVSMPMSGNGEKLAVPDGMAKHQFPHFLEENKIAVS

Results are given in words; binding and its absence hold for the method and conditions named. In cells and extracts the contact can be indirect. Here binding means that the protein was enriched with, or labelled near, the bait; the list need not be complete. For some assays here: Where a sequence is shown, tags or fusion partners need not be part of it.

For experiment [1], the target named is T1, Nanog-LAP (mouse (BAC transgene in mouse R1/E ESC)) (UniProt Q80Z64).
T1 sequence: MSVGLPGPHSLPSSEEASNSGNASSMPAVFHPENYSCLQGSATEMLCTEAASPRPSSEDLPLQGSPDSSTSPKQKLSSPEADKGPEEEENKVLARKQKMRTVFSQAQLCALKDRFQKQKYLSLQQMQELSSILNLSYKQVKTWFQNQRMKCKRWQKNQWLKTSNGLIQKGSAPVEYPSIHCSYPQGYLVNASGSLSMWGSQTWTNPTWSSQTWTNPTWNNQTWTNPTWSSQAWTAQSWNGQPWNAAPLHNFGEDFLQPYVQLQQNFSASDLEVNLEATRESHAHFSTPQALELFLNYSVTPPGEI
As to the kind of experiment: affinity purification with mass spectrometry; immunoprecipitation of LAP-tagged Nanog from nuclear extracts of Nanog-LAP ESC, wildtype ESC as control; shotgun mass spectrometry.

The target in experiment [2] is T2, Nanog-LAP (mouse (BAC transgene in mouse R1/E ESC)), Q80Z64.
T2 chain: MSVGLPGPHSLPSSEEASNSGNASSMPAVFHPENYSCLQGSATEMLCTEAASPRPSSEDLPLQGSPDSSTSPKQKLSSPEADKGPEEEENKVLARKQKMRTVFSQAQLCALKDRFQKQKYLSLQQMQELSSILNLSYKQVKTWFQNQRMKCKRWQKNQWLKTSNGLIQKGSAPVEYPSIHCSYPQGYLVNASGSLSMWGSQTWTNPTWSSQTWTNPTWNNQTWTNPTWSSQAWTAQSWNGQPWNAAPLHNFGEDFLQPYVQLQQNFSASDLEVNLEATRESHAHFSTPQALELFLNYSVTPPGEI
The experiment is described as above. Conditions: remark: other sources report otherwise.

With Sox2 (from UniProt P48432 1-319), in experiment [1], the binding entry was “binds”.

With Gdf3 (from UniProt Q07104), the binding result in experiment [1] is “binds”.

Take Sall4 (from UniProt Q8BX22 1-1067): the binding result in experiment [1] is on record as “binds”.

B1: WAPL (protein, UniProt Q65Z40 1-1200)
chain: MTSRFGKTYSRKGGNGSSKFDEVFSNKRTTLSTKWGETTFMAKLGQKRPNFKPDIQEIPKKPKVEEEDTGDPFGFDSDDESLPVSSKNLAQGKGSSYSESSEAAQLEEVTSVFEANSKCSHVVGEDSFASDRCLLVEDTLIGKEKSISRIPEDNANKSSCTKLLTSDKVENFSEEHEKNSHHFHKNAEDSTKKPNAETAVASEYKADETKETNDTWNSQSGKRTESPSESCPVKGSVRTGLYEWDNDFEDIRSEDCILSLDNESLLEMKDEDLKNRIGGLENLNETFEEDIIQSVLRPSNCRTYCRANKARSSQGASNFDKLMDGTSQSLAKANSESSKDGLNQAKKGSASCGTSFRGTVGRTRDYTVLHPSCLSVCNVTIQDTMERSMDEFTASTPADLGEAGRLRKKADIATSKTTTRFRPSNTKSKKDVKLEFFGFEDHDETGGDEGGSGSSNYKIKYFGFDDLSESEDDDDDDCQVERKKDKKRTKTAPSPSQQPPPESSDNSQDSQSSTNNAENLDFTEDLPGVPESVKKPISKQGDKSKENTRKIFSGPKRSPTKAVYNARHWNHPDSEELPGPPIAKPQRVTVRLSSKEPNQKDDGVFKAPAPPLKVIKTVTIPTQPYQEIVTALKCRKEDKELYTVVQHVKHFNDVVEFGENQEFTDDIEYLLSGLKSTQPLNTRCLSVISLATKCAMPSFRMHLRAHGMVAMVFKTLDDSQHHQNLSLCTAALMYILSRDRLNMDLDRASLDLMIRLLELEQDASSAKLLNEKDMNKIKEKIRRLCETVHNKHLDLENITTGHLAMETLLSLTSKRAGDWFKEELRLLGGLDHIVDKVKECVDHLSRDDEDEEKLVASLWGAERCLRVLESVTVHNPENQSYLIAYKDSQLIISSAKALQHCEDLIQQYNRAENSICVADSNPLPYQNVTNHVGKAVEDCMRAIIGVLLNLTNDNEWGSTKTGEQEGLIGTAMNCVLQVPKYLPQEQRFDIRVLGLGLLINLVEYSARNRHCLVNMQTSCSFDSSFSSGEGDHSLRLAGQVHAVQALVQLFLERERAAQLAESKTDELIKDAPTTQHDKSGEWQETSGEIQWVSTEKTDGAEEKQKKEEEDEELDLNKALQHAGKHMEDCIVASYTALLLGCLCQESPINVTTVREYLPEGDFSIMTEMLKKFLSFMNLTCAVGTTGQKSISRVIEYLEHC
As for B1, in experiment [1], the binding result is reported as “binds”.

B2: Zfp281 (protein, UniProt Q99LI5 1-893)
chain: MKIGSGFLSGGGGPSSSGGSGSGGSSGSASGGSGGGRRAEMEPTFPQSMVMFNHRLPPVTSFTRPAGTAAPPPQCVLSSSTSAAPAAEPPPPPAPDMTFKKEPAASAAAFPSQRTSWGFLQSLVSIKQEKPADPEEQPSHHHHHHHHYGGLFAGAEERSPGLGGGEGGSHGVIQDLSLLHQHAQQQPAQHHRDVLLSSGSRTDEHGNQEPKQDANVKKAKRPKPESQGIKAKRKPSASSKPLVGEGEGAVLSPSQKPHICDHCSAAFRSSYHLRRHVLIHTGERPFQCSQCSMGFIQKYLLQRHEKIHSREKPFGCDQCSMKFIQKYHMERHKRTHSGEKPYKCDTCQQYFSRTDRLLKHRRTCGEAIAKGAASAEPGSSNHNSMGNLAVLSQGNTSSSRRKSKSKSIAIENKEHKTGKTNESQMSNNINMQSYSVEMPTVSTSGSIIGTGIDELQKRVPKLIFKKGSRKNADKSYLNFVSPLPDVVGQKSLSGKPGGSLGIVSNNSVETISLLQSTSGKQGPISSNYDDAMQFSKKRRYLPTASSNSAFSINVGHMVSQQSVIQSAGVSVLDNEAPLSLIDSSALNAEIKSCHDKSGIPDEVLQSILDQYSGKSETQKEDPFNLTEPRVDLHTSGEHSELVQEENLSPGTQTPSNDKTSMLQEYSKYLQQAFEKSTNAGFTLGHGFQFVSLSSPLHNHTLFPEKQIYTTSPLECGFGQSVTSVLPSSLPKPPFGMLFGSQPGLYLSALDATHQQLTPSQELDDLIDSQKNLETSSAFQSSSQKLTSQKEQQKNLESSTSFQIPSQELASQIDPQKDIEPRTTYQIENFAQAFGSQFKSGSRVPMTFITNSNGEVDHRVRTSVSDFSGYTNMMSDVSEPCSTRVKTPTSQSYR
B2: the binding entry in experiment [1] is “binds”.

B3: Nr0b1 (protein, UniProt Q61066 1-472)
chain: MAGEDHPWQGSILYNLLMSAKQKHASQEEREVRLGAQCWGCACGAQPVLGGERLSGGQARSLLYRCCFCGENHPRQGGILYSMLTNARQPSVATQAPRARFGAPCWGCACGSAEPLVGREGLPAGQAPSLLYRCCFCGEEHPRQGSILYSLLTSAQQTHVSREAPEAHRRGEWWQLSYCTQSVGGPEGLQSTQAMAFLYRSYVCGEEQPQQISVASGTPVSADQTPATPQEQPRAPWWDASPGVQRLITLKDPQVVCEAASAGLLKTLRFVKYLPCFQILPLDQQLVLVRSCWAPLLMLELAQDHLHFEMMEIPETNTTQEMLTTRRQETEGPEPAEPQATEQPQMVSAEAGHLLPAAAVQAIKSFFFKCWSLNIDTKEYAYLKGTVLFNPDLPGLQCVKYIEGLQWRTQQILTEHIRMMQREYQIRSAELNSALFLLRFINSDVVTELFFRPIIGAVSMDDMMLEMLCAKL
In the case of B3, in experiment [1], the binding entry was “binds”.

B4: Rnf2, Q9CQJ4 1-336 (protein)
chain: MSQAVQTNGTQPLSKTWELSLYELQRTPQEAITDGLEIVVSPRSLHSELMCPICLDMLKNTMTTKECLHRFCADCIITALRSGNKECPTCRKKLVSKRSLRPDPNFDALISKIYPSRDEYEAHQERVLARINKHNNQQALSHSIEEGLKIQAMNRLQRGKKQQIENGSGAEDNGDSSHCSNASTHSNQEAGPSNKRTKTSDDSGLELDNNNAAVAIDPVMDGASEIELVFRPHPTLMEKDDSAQTRYIKTSGNATVDHLSKYLAVRLALEELRSKGESNQMNLDTASEKQYTIYIATASGQFTVLNGSFSLELVSEKYWKVNKPMELYYAPTKEHK
Regarding B4, the binding entry in experiment [2] is given as “binds”.

B5: STAG1 (protein, UniProt Q9D3E6 1-1258)
chain: MITSELPVLQDSTNETTAHSDAGSELEETEVKGKRKRGRPGRPPSTNKKPRKSPGEKSRIEAGIRGAGRGRANGHPQQNGDGDPVTLFEVVKLGKSAMQSVVDDWIELYKQDRDIALLDLINFFIQCSGCRGTVRIEMFRNMQNAEIIRKMTEEFDEDSGDYPLTMPGPQWKKFRSNFCEFIGVLIRQCQYSIIYDEYMMDTVISLLTGLSDSQVRAFRHTSTLAAMKLMTALVNVALNLSIHQDNTQRQYEAERNKMIGKRANERLELLLQKRKELQENQDEIENMMNSIFKGIFVHRYRDAIAEIRAICIEEIGVWMKMYSDAFLNDSYLKYVGWTLHDRQGEVRLKCLKALQSLYTNRELFPKLELFTNRFKDRIVSMTLDKEYDVAVEAIRLVTLILHGSEEALSNEDCENVYHLVYSAHRPVAVAAGEFLHKKLFSRHDPQAEEALAKRRGRNSPNGNLIRMLVLFFLESELHEHAAYLVDSLWESSQELLKDWECMTELLLEEPVQGEEAMSDRQESALIELMVCTIRQAAEAHPPVGRGTGKRVLTAKERKTQIDDRNKLTEHFIITLPMLLSKYSADAEKVANLLQIPQYFDLEIYSTGRMEKHLDALLKQIKFVVEKHVESDVLEACSKTYSILCSEEYTIQNRVDIARSQLIDEFVDRFNHSVEDLLQEGEEADDDDIYNVLSTLKRLTSFHNAHDLTKWDLFGNCYRLLKTGIEHGAMPEQIVVQALQCSHYSILWQLVKITDGSPSKEDLLVLRKTVKSFLAVCQQCLSNVNTPVKEQAFMLLCDLLMIFSHQLMTGGREGLQPLVFNPDTGLQSELLSFVMDHVFIDQDEENQSMEGDEEDEANKIEALHKRRNLLAAFSKLIIYDIVDMHAAADIFKHYMKYYNDYGDIIKETLSKTRQIDKIQCAKTLILSLQQLFNELVQEQGPNLDRTSAHVSGIKELARRFALTFGLDQIKTREAVATLHKDGIEFAFKYQNQKGQEYPPPNLAFLEVLSEFSSKLLRQDKKTVHSYLEKFLTEQMMERREDVWLPLISYRNSLVTGGEDDRMSVNSGSSSSKTSSVRSKKGRPPLHRKRVEDESLDNTWLNRTDTMIQTPGPLPTPQLTSTVLRENSRPMGEQIQEPESEHGSEPDFLHNPQMQISWLGQPKLEDLNRKDRTGMNYMKVRAGVRHAVRGLMEEDAEPIFEDVMMSSRSQLEDMNEEFEDTMVIDLPPSRNRRERAELRPDFFDSAAIIEDDSGFGMPMF
As to B5, the binding result in experiment [1] is given as “binds”.
